# Values from PubChem BioAssay AID1259254 (NCATS, 2017)
# Purpose: 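Gene knock-downs that lead to re-replication, shown by excess G2 DNA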 (primary screen)
# Cells: human HCT116 colorectal cancer cells
# Knock-down reagent: single siRNA against human genes
# Duration: 3 days
# Measured: 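Imaged Hoechst DNA stain sorts each cell into a cycle phase by DNA amount; per plate, G2 fraction set to 0% for non-targeting and 100% for GMNN siRNA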
# Direction: G2 robust z-score and G2 cells, % of GMNN control: higher = more G2 cells, more excess DNA replication; raw share of cells in G2: higher = larger share of cells with G2 DNA content
# Call rule: 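Active siRNAs have a G2 robust z of 5 or more median absolute deviations over the median, which in these data means about 38% or higher of GMNN control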
# Here is a random part of about 59,000 reagents. About 1,550 of all reagents (2.6%) were called active. 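G2 share is only a proxy for re-replication; each gene was hit by three separate siRNAs, and active genes were retested.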 The raw values are shown without normalisation. A number with no mark means an inactive call. Reagents against one gene are numbered here. Not stated in the record: the amount of reagent.
target,reagent,G2 robust z-score,"G2 cells, % of GMNN control",raw share of cells in G2 (%)
MEMO1,1,-0.0048,2.93,4.97
MEMO1,2,-0.829,-2.86,3.47
MEMO1,3,1.36,12.6,7.21
CISD1,1,0.715,8,7.6
CISD1,2,0.75,8.24,7.55
CISD1,3,-1.04,-4.37,1.74
LOC730909 (retired record),1,-0.209,1.5,4.06
LOC730909 (retired record),2,1.65,14.6,9.39
LOC730909 (retired record),3,2.39,19.8,11.6
ECT2L,1,-0.699,-1.95,3.32
ECT2L,2,0.337,5.34,5.6
ECT2L,3,-0.132,2.04,5.01
ZNF675,1,0.265,4.83,4.75
ZNF675,2,-0.501,-0.558,2.97
ZNF675,3,0.829,8.8,6.61
SLC6A15,1,2.46,20.3,12.8
SLC6A15,2,-0.79,-2.59,5.29
SLC6A15,3,-0.87,-3.15,3.31
HOMER1,1,0.0118,3.05,4.24
HOMER1,2,0.368,5.56,7.3
HOMER1,3,-0.211,1.48,5.35
DOCK9,1,-0.919,-3.5,4.97
DOCK9,2,-1.21,-5.56,2.29
DOCK9,3,0.756,8.29,6.7

4 entries already listed, ordered by “G2 robust z-score”, ascending.
target,reagent,G2 robust z-score,"G2 cells, % of GMNN control",raw share of cells in G2 (%)
SLC6A15,3,-0.87,-3.15,3.31
SLC6A15,2,-0.79,-2.59,5.29
ZNF675,3,0.829,8.8,6.61
SLC6A15,1,2.46,20.3,12.8

The results go on:
target,reagent,G2 robust z-score,"G2 cells, % of GMNN control",raw share of cells in G2 (%)
FUT7,1,-0.13,2.05,4.39
FUT7,2,-1.03,-4.3,3.68
FUT7,3,3.33,26.4,15.3
KCNK16,1,6.38 (active),47.8,22.7
KCNK16,2,2.15,18.1,10.9
KCNK16,3,-1.32,-6.34,1.9
DNAJA4,1,0.185,4.27,4.3
DNAJA4,2,-1.22,-5.62,3.37
DNAJA4,3,-0.959,-3.78,2.44
CCDC59,1,1.06,10.4,6.53
CCDC59,2,-0.385,0.256,3.95
CCDC59,3,0.691,7.83,7.51
GPATCH11P1,1,3.73,29.2,14
GPATCH11P1,2,1.45,13.2,9.02
GPATCH11P1,3,0.462,6.22,6.69
KRT40,1,-0.8,-2.66,3.47
KRT40,2,-0.985,-3.96,3.27
KRT40,3,-0.65,-1.6,4.93
TPP2,1,1.13,10.9,9.36
TPP2,2,-0.529,-0.756,4.64
TPP2,3,0.302,5.1,5.81
TMOD3,1,0.806,8.64,7.15
TMOD3,2,4.23,32.7,16.9
TMOD3,3,-0.165,1.8,3.82
